In PMC6929503 one finds binding data, which are given here for one molecule.

No constants are given. Whether binding was seen depends on the method and setting. In cells and extracts the contact can be indirect. Binding calls can cover weak binding; strength is not graded here. Sequences can lack the tags named with a protein.

Experiment [1] concerns the target HA-tagged human progranulin (human). Kind of experiment: proximity ligation; HEK-293 cells transfected with GBA-myc-Flag and HA-GRN, fixed 48 h later; anti-HA and anti-Flag antibodies, Duolink proximity ligation kit; controls: one construct only, or no primary antibodies.
The target is the same in experiment [2]. Kind of experiment: co-IP; HEK-293 cells co-transfected with HA-GRN and/or GBA-myc-Flag, harvested after 48 h in 50 mM Tris, 150 mM NaCl, 5 mM EDTA, 1% Triton X-100, 0.1% sodium deoxycholate; HA-progranulin immunoprecipitated from 100 μg lysate protein with anti-HA antibody; blotted for Flag.

B1: myc-Flag-tagged human GCase (β-glucocerebrosidase) (enzyme, UniProt P04062 40-536)
chain: ARPCIPKSFGYSSVVCVCNATYCDSFDPPTFPALGTFSRYESTRSGRRMELSMGPIQANHTGTGLLLTLQPEQKFQKVKGFGGAMTDAAALNILALSPPAQNLLLKSYFSEEGIGYNIIRVPMASCDFSIRTYTYADTPDDFQLHNFSLPEEDTKLKIPLIHRALQLAQRPVSLLASPWTSPTWLKTNGAVNGKGSLKGQPGDIYHQTWARYFVKFLDAYAEHKLQFWAVTAENEPSAGLLSGYPFQCLGFTPEHQRDFIARDLGPTLANSTHHNVRLLMLDDQRLLLPHWAKVVLTDPEAAKYVHGIAVHWYLDFLAPAKATLGETHRLFPNTMLFASEACVGSKFWEQSVRLGSWDRGMQYSHSIITNLLYHVVGWTDWNLALNPEGGPNWVRNFVDSPIIVDITKDTFYKQPMFYHLGHFSKFIPEGSQRVGLVASQKNDLDAVALMHPDGSAVVVVLNRSSKDVPLTIKDPAVGFLETISPGYSIHTYLWRRQ
As for B1, the binding result in experiment [1] and in experiment [2] was “binds” in each case.
